{"source": "patent US7468274B2", "about": "“Single cell analysis of HIV replication capacity and drug resistance” (priority 2004, dated 2008)", "key": {"[1]": {"tested_on": "pseudotyped reporter viruses carrying the NL4-3 gag-pol sequence (wild type)", "type": "cell-based, HIV-1"}, "[2]": {"tested_on": "Pt202-3 patient-derived drug-resistant HIV-1 isolate", "type": "cell-based"}}, "note": "At least one compound was matched to its structure with a doubt left.", "data": [{"smiles": "Nc1ccn([C@@H]2CS[C@H](CO)O2)c(=O)n1", "note": "[3TC, lamivudine]", "values": [{"measurement": "Replication of the wild-type virus in the presence of drug", "setting": "[1]", "value": "strongly suppressed"}, {"measurement": "Replication of the resistant virus in the presence of drug", "setting": "[2]", "value": "not affected"}]}]}
